Reference: PubChem BioAssay AID2549 (National Center for Advancing Translational Sciences (NCATS), 2010)
Values joined by “and” are separate entries in the source; they are usually repeats but may differ in a detail not shown here. Equal entries are not always repeated. Hit rate of the full screen: of about 240,000 compounds, about 1,300 (0.54%) were called active. This list was built around the results that the source calls inconclusive (neither active nor inactive); the mix of calls is not that of the screen. The call rests on the fitted dose curve; in most records, active means well fitted inhibition curve with a large enough effect; inconclusive means small, poorly fitted or top-dose-only effect; inactive means flat fitted curve, though single readings scatter. Where the call is inconclusive, the potency comes from a doubtful curve fit. Where a structure was tested more than once in an assay, its records may differ in their call.

The chains behind the UniProt entries cited, without tags or fusion partners. Where a name states a change or a piece, a line headed by the entry shows the natural chain unless it says otherwise.
UniProt P46063: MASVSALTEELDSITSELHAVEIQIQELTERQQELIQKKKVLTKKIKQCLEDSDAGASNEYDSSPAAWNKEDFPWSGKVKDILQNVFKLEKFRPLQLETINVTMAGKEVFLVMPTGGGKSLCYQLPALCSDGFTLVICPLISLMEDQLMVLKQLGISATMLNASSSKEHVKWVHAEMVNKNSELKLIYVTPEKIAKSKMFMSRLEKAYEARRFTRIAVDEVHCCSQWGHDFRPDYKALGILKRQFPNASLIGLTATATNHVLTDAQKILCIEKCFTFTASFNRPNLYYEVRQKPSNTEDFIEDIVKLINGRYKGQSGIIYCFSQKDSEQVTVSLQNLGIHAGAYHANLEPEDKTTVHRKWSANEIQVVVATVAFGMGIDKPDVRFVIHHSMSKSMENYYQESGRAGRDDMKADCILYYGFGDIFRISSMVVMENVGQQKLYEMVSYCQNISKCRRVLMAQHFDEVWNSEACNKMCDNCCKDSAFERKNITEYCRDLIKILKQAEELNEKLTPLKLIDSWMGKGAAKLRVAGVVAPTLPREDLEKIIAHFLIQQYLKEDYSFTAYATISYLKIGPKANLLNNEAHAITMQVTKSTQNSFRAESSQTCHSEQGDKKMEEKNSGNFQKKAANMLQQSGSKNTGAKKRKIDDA

molecular target: ATP-dependent DNA helicase Q1 (Homo sapiens) (UniProt P46063); experiment: qHTS Assay for Inhibitors of RecQ-Like Dna Helicase 1 (RECQ1); conditions: RECQ1 DNA unwinding, red fluorescence kinetic read; activity, negative = inhibition: at 57.3 µM (top of the series); series mostly up to 57.3 µM; further: nearly all actives have a fitted effect of over 30% in size;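 on activity, negative = inhibition: plate controls were vehicle for no effect and no enzyme for full effect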
Outline: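 50 nM RECQ1T1 preincubated 15 min with compound in Tris pH 8.0 buffer with MgCl2, DTT, Tween-20 and 2.5 ug/ml poly(dI-dC); started with 200 nM TAMRA/BHQ-2 forked duplex and 2 mM ATP. Unwinding read as fluorescence (525/598 nm), two reads 2 h apart.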
Potency means the concentration at half of the fitted maximal effect.

| Compound | activity, negative = inhibition | outcome | Potency |
| --- | --- | --- | --- |
| CN(C)c1ccc(N/C=C/C(=O)C(C)(C)C)cc1 | inactive: -19.8% |  |  |
| CN1CCN(C(=O)c2cc(COc3c(F)cccc3F)on2)CC1c1ccccc1 (configuration not stated) |  | inactive |  |
| COC(=O)c1ccc(COC(=O)CNC(=O)CNC(=O)c2ccc(C)cc2)cc1 |  |  | inconclusive: 0.708 µM [inhibitor, single point] |
| CC(Sc1ccccc1)C(=O)N(CCC#N)Cc1cccnc1 (configuration not stated) |  |  | inconclusive: 0.224 µM [inhibitor, full curve] |
| COCCOC(=O)c1c(NC(=O)CN2CCc3ccccc32)sc(C(N)=O)c1C |  |  | active: 20 µM |
| CCn1c(CSc2nccn2C)nc2cc(C(=O)O)ccc21 | inactive: -9.54% |  |  |
| Cc1ccccc1N1C(=O)CC(Sc2nnc(-c3ccccc3)o2)C1=O (configuration not stated) |  | inactive |  |
| Nc1c(C(=O)NCC2CCCO2)sc2nc3c(c(-c4ccco4)c12)CC/C3=C\c1ccco1 (configuration not stated) |  |  | active: 2.51 µM |
| CC(=O)c1cccc(NC(=O)C2C(c3ccccc3)C2(Cl)Cl)c1 (configuration not stated) | inactive: -4.74% |  |  |
| COC/C=C/C1=CC2=CC(=O)C(C)(OC(=O)c3ccco3)C(=O)C2=CO1 (configuration not stated) |  |  | active: 28.2 µM |
| COc1cccc(OCc2nnc(SCC(=O)NCc3ccco3)n2CCc2ccccc2)c1 |  |  | inconclusive: 7.94 µM [inhibitor, single point] |
| O=C(NCCN1C(=O)S/C(=C\c2cccnc2)C1=O)c1ccc(S(=O)(=O)N2CCCC2)cc1 |  |  | inconclusive: 39.8 µM [inhibitor, single point] |
| COc1ccc2c(c1)c(=O)oc1cc(OCC(=O)N3CCc4ccccc4C3)ccc12 |  |  | active: 14.1 µM |
| CC1CCN(C(=S)c2ccc(O)cc2)CC1 |  |  | inconclusive: 8.91 µM [inhibitor, partial curve] |
| Cc1ccc(S(=O)(=O)N2CCc3ccccc3C2CN2C(=O)c3ccccc3C2=O)cc1 (configuration not stated) |  |  | active: 31.6 µM |
| CNc1ccccc(C(=O)/C=C/c2ccccc2OC)c1=O |  |  | active: 25.1 µM |
| COc1ccc(N2CCN(c3cc(C)c4cccc(C)c4n3)CC2)cc1 |  |  | inconclusive: 2.82 µM [inhibitor, full curve] |
| CCOC(=O)N/N=C/c1cc(C)n(-c2cccc3ccccc23)c1C |  |  | inconclusive: 3.55 µM [inhibitor, partial curve] |
| C[C@H]1Cc2c(-c3ccccc3)nc3c(c2CO1)CN(C(=O)NCc1ccco1)CC3 | inactive: -6.47% [at 11.5 µM] |  |  |
| CC(=O)Oc1ccc2c(c1)O/C(=C\c1ccncc1)C2=O |  |  | inconclusive: 22.4 µM [inhibitor, partial curve] |
| Cc1ccc2occ(/C=N/NC(N)=S)c(=O)c2c1 | inactive: -7.99% |  |  |
| S=C(NCc1ccco1)Nc1ccc(Oc2ccc(Cl)cc2)cc1 |  |  | inconclusive: 22.4 µM [inhibitor, single point] |
| COC(=O)C1=NN[C@H](C(=O)OC(C)(C)C)[C@H]1c1ccccc1 |  |  | inconclusive: 1.41 µM [inhibitor, full curve] |
| Cc1cc(NS(=O)(=O)c2ccc(NC(=O)CSc3nc4sc(C)c(C)c4c(=O)[nH]3)cc2)no1 | inactive: -9.53% |  |  |

| Compound | activity, negative = inhibition | outcome | Potency |
| --- | --- | --- | --- |
| O=C(Nc1ncccn1)C1CCCN1S(=O)(=O)c1ccc(Cl)c(Cl)c1 (configuration not stated) |  |  | inconclusive: 6.31 µM [inhibitor, single point] |
| Cc1ccc(C(=O)OCC(=O)NC2CCCCC2)s1 |  |  | inconclusive: 0.01 µM [inhibitor, full curve, poor fit] |
| O=C1Nc2ccc(I)cc2/C1=C/c1cc(Br)c(O)c(Br)c1 |  |  | active: 25.1 µM |
| CCOC(=O)C=C1CCN(c2ncc(C(F)(F)F)cc2Cl)CC1 |  |  | inconclusive: 0.199 µM [inhibitor, full curve] |
| O=C(O)CN1C(=O)/C(=C/c2ccc(SCc3ccccc3)o2)SC1=S |  |  | active: 25.1 µM |
| COc1cc2ccc(=O)oc2cc1O |  |  | inconclusive: 31.6 µM [inhibitor, single point] |
| O=C1NC(=Nc2ccc(O)cc2)S/C1=C\C=C\c1ccco1 |  |  | inconclusive: 31.6 µM [inhibitor, single point] |
| COc1cccc(CN2C(=O)C3CCCN3c3ccc(S(=O)(=O)N4CCOCC4)cc32)c1 (configuration not stated) |  |  | active: 28.2 µM |
| O=c1cc(CSc2n[nH]c(-c3ccncc3)n2)nc2sccn12 |  |  | inconclusive: 31.6 µM [inhibitor, single point] |
| COc1ccc2c(c1)C=CC1(O2)N(CCO)c2ccccc2C1(C)C (configuration not stated) |  |  | inconclusive: 31.6 µM [inhibitor, single point] |
| Cc1ccc(S(=O)(=O)Nc2ccc(C(=O)OCC(=O)N(CCC#N)c3ccccc3)cc2)cc1C |  |  | inconclusive: 1.41 µM [inhibitor, full curve] |
| H-KIPYIL-OH |  |  | inconclusive: 20 µM [inhibitor, single point] |
| CSc1nc(N2CCN(CCO)CC2)c2sc3nc(-c4ccco4)c4c(c3c2n1)CCC4 | inactive: -1.55% |  |  |
| CCN(CCO)c1ccc(NC(=S)Nc2cccc(S(=O)(=O)N(C)C)c2)cc1 |  |  | active: 39.8 µM |
| O=C(O)c1ccc(N/N=C/c2cn(Cc3ccccc3F)c3ccccc23)cc1 |  |  | inconclusive: 39.8 µM [inhibitor, single point] |
| CC[n+]1c(C)sc2c3ccsc3ccc21 | inactive: -13.8% |  |  |
| CC(Cc1c[nH]c2ccccc12)C(=O)O (configuration not stated) |  |  | active: 35.5 µM |
| Cc1c2cc(O)c(=O)cc-2oc2cc(O)c(O)cc12 |  |  | active: 1.58 µM and active: 10 µM |
| Cc1nn(CC(=O)Nc2ccc3c(c2)nc2n3CCN(C3CCCCC3)C2)c(=O)c2ccccc12 |  |  | inconclusive: 3.98 µM [inhibitor, partial curve] |
| COc1ccc(N2Cc3ccccc3C2=NC(=O)c2ccc(C)cc2)cc1OC |  |  | inconclusive: 28.2 µM [inhibitor, single point] |
| O=C(O)c1cc(C(=O)O)cc(-c2ccc(/C=c3/sc4nc5ccccc5n4c3=O)o2)c1 |  |  | inconclusive: 35.5 µM [inhibitor, single point] |
| CCN(CC)c1ccc(/C=C(\C#N)C(=O)c2ccc(Br)cc2)cc1 |  |  | inconclusive: 35.5 µM [inhibitor, single point] |
| Cc1[nH]n(-c2cccc3ccccc23)c(=O)c1/C=N/NC(=O)c1cccc([N+](=O)[O-])c1 |  |  | inconclusive: 28.2 µM [inhibitor, partial curve] |
